{"source": "PubChem BioAssay AID1347423", "about": "(Functional Genomics Laboratory (NCATS/FGL), 2020)", "note": "Among all 52,000 sequences or so, about 210 (0.4%) were called active.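 The calls were made as follows: active = gene whose silencing raises cell survival under the drug, median off-target-corrected z-score across its silencing RNAs 2 or more; inactive = the rest.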 The list shows a part of the results."}
{"test": "Resistance to Poly (ADP-Ribose) Polymerase inhibitor: Gene Identification via Genome-wide siRNA Screen", "conditions": "mouse BRCA2 R2336H ES cells, olaparib, CellTiter-Glo viability; active compounds read high", "outline": "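Genome-wide siRNA screen (3 siRNAs/gene, 20 nM) in mouse ES cells carrying hypomorphic BRCA2 R2336H; olaparib 500 nM added 48 h post-transfection, CellTiter-Glo viability 72 h later. Normalized to plate-median negative control; MAD z-scores, gene median, seed-adjusted.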"}
{"sequence": "GCAAGAGGAGGACGAAAAGTT against Ssna1", "z-score": "inactive: -2.39"}
{"sequence": "CCAAGAGCUAUGUUGGUUUTT against Txln", "z-score": "inactive: -0.579"}
{"sequence": "CGCCUUCCUUCAACACGCATT against 1700049L16Rik", "z-score": "inactive: -0.258"}
{"sequence": "CGAUGGGUAGUGUUUUAACTT against Mpra", "z-score": "inactive: 1.19"}
{"sequence": "GCCAUUAAUGUACCAGGUUTT against Olfr894", "z-score": "inactive: -1.81"}
{"sequence": "CCGCUCACUUCUUGAAUAUTT against Rnf125", "z-score": "inactive: -0.852"}
{"sequence": "GGACGUAGAAGUUUGGGAGTT against Nupl2", "z-score": "inactive: -0.119"}
{"sequence": "GGCCCACUUUAUCAUGAAUTT against Zfp259", "z-score": "inactive: -0.205"}
{"sequence": "GGGAGAUCUUUAAGAGAAATT against Tcfap2a", "z-score": "inactive: -0.65"}
{"sequence": "GCUACGCUUCCUUAUUUGCTT against Tubgcp3", "z-score": "inactive: -1.56"}
{"sequence": "GGAACUCACUAACUUCUUGTT against 4930432J16Rik", "z-score": "inactive: -0.135"}
{"sequence": "GGGUGGUAACAACAUUAAATT against Bicc1", "z-score": "inactive: 1.33"}
{"sequence": "GCACACGAAGCAUUGACACTT against Als2cr13", "z-score": "inactive: 0.767"}
{"sequence": "GCCCUGGAAGAAUUAUGUGTT against Cml4", "z-score": "inactive: 0.186"}
{"sequence": "CCAUUUCUCACCAGUGAUCTT against LOC433481", "z-score": "inactive: 0.609"}
{"sequence": "GGCCAAUCUCACCUGGACATT against Man2b1", "z-score": "inactive: 0.0484"}
{"sequence": "GGGCAUUUAAAAUAAGGCATT against Nfib", "z-score": "inactive: 0.652"}
{"sequence": "GGAGUACAUUCCCUCUACCTT against Cml1", "z-score": "inactive: 0.554"}
{"sequence": "CGUUGAUGUGUAUUUAAACTT against AW146242", "z-score": "inactive: 0.87"}
{"sequence": "GGAUCCUGCUAAGACCAUCTT against Sstr3", "z-score": "inactive: 1.25"}
{"sequence": "CGUAACUGAGUCAAUUAGUTT against Pdzk6", "z-score": "inactive: -0.493"}
{"sequence": "GGCACAAAAGAAGAUCCUGTT against Tnfaip8", "z-score": "inactive: 0.328"}
{"sequence": "GCUAUUUUCGUCACUUUCUTT against Stk22a", "z-score": "inactive: -0.302"}
{"sequence": "GCAAUACGUGGAAGAUGGATT against G630042G04", "z-score": "inactive: -2.37"}
{"sequence": "CCAUUGCAUAUUUAGUAGCTT against Sox11", "z-score": "inactive: -0.326"}
{"sequence": "GGUGGUACAGGAUCUAUGUTT against Etfa", "z-score": "inactive: -0.279"}
{"sequence": "GGUUUAAACCAGAAAAAUGTT against 4930524B15Rik", "z-score": "inactive: -0.0462"}
{"sequence": "GGUUUACACCCUCAGAUCATT against Cct7", "z-score": "inactive: -2.96"}
{"sequence": "GGUCAAGUUAAGGUAUUUCTT against Pkhd1", "z-score": "inactive: 0.495"}
